# Values joined by “and” are separate entries in the source; they are usually repeats but may differ in a detail not shown here. Equal entries are not always repeated. Hit rate of the full screen: of about 78,000 compounds, about 1,800 (2.3%) were called active. The shares of active, inactive and inconclusive entries below differ from those in the screen. Cut-off read from the data, not from the text of the source: active = inhibition above about 30%; inconclusive = mostly about 10% to 28%; inactive = weaker than that.
# Amino acid sequences for entries named in this document (tags omitted). A change or cut given only in a name is not applied to a line headed by its entry.
# UniProt Q01638: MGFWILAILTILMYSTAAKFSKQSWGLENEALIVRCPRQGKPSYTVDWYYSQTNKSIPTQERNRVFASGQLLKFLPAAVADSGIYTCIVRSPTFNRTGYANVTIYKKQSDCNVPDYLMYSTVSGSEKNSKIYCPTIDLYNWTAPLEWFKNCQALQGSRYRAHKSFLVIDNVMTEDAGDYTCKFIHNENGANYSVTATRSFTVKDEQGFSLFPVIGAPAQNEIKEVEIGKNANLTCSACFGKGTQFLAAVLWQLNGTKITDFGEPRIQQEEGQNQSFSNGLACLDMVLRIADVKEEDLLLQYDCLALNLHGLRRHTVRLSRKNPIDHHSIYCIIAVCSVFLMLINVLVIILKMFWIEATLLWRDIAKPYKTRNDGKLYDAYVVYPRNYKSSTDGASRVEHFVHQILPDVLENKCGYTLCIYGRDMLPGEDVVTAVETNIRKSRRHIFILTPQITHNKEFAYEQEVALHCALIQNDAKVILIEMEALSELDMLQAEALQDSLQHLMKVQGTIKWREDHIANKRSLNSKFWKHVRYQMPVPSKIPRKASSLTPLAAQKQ
# Molecular target: Interleukin-1 receptor-like 1 (Homo sapiens) (UniProt Q01638)
# Test: blocks human ST2 binding to IL-33, primary screen, biochemical, AlphaLISA (AID 1259354)
# Conditions: AlphaLISA ST2-Fc/biotin-IL-33 interaction, 1 h; at 17 µM, active compounds read high
row,SMILES,inhibition
1,CC1CCC(C(=O)NC(C(=O)Nc2ccc(F)c(Cl)c2)C(C)C)CC1 (stereo not given),inconclusive: 16%
2,COc1ccc(C(Nc2cccc(C)n2)c2ccc3ccc(C)nc3c2O)cc1C (stereo not given),inconclusive: 20%
3,O=C(NCc1ccc(N2CCCC2=O)cc1)c1cn(CC2CCCO2)nn1 (stereo not given),inactive
4,COc1ccc(C(O)=Cc2nc3cc(Cl)ccc3oc2=O)cc1OC,inconclusive: 10%
5,COc1ccc(NC(=O)CSc2nc3ccccc3o2)c([N+](=O)[O-])c1,inconclusive: 13%
6,O=C(/C=C/c1ccc(Cl)cc1)NCCc1nc2ccccc2[nH]1,inconclusive: 22%
7,Cc1ccc(C)c(Cn2c(=O)n(CCC(=O)NCc3ccccc3)c(=O)c3sccc32)c1,inactive
8,CC(=O)c1sc2[nH]c(=O)n(-c3ccc(Cl)cc3)c(=O)c2c1C,inconclusive: 10%
9,CCN1/C(=c2/sc3nc4ccccc4n3c2=O)C=Cc2cc(C)ccc21,inactive
10,Cn1c(CCNC(=O)C2CC23CCN(CC2=CC[C@H]4C[C@@H]2C4(C)C)CC3)nc2ccccc21 (stereo not given in full),inactive
11,COCc1nc(N2CCCC(OCc3ccccn3)C2)c2cnn(C)c2n1 (stereo not given),inconclusive: 12%
12,CC1CCCN(Cc2c(O)ccc3cc(-c4nc5ccccc5s4)c(=O)oc23)C1 (stereo not given),inconclusive: 12%
13,COC(=O)C1=C(NC(=O)c2ccc(C(C)(C)C)cc2)CCS1,active: 53%
14,COc1cc(C)ccc1S(=O)(=O)N1CCC2(CCN(C)C2)CC1,inconclusive: 10%
15,O=C(CCc1cn(Cc2ccccc2)c2ccccc12)NC1CC1,inconclusive: 14%
16,CC(C)Cn1nc(C(=O)N2CCCC2)c2c1CCC(NCC1(c3ccccc3)CCOCC1)C2 (stereo not given),inconclusive: 15%
17,CCOC(=O)C1CCCN(C(=O)CSc2cc(=O)n(C)c3ccccc23)C1 (stereo not given),inactive
18,CCOC(=O)c1ccc(N2CCC3(CC2)C(=O)Nc2ccccc23)nc1,inconclusive: 14%
19,CSc1ccccc1NC(=O)CSc1ccccn1,inactive
20,CC1CCC2(CC1)SCC(=O)N2c1ccc(Cl)cc1 (stereo not given),inconclusive: 15%
21,CSc1nnc(CC2CCN(Cc3cc(C(C)(C)C)n[nH]3)CC2)n1C,inconclusive: 10%
22,Cc1cc2c(cc1Cl)N1CCS(=O)(=O)N=C1S2,inactive
23,Clc1nc(NCCCN2CCOCC2)nc(N(c2ccccc2)c2ccccc2)n1,inactive
24,Cn1cc(CC(=O)NCCN2CCN(c3cccc(Cl)c3)CC2)c2ccccc21,inconclusive: 15%

row,SMILES,inhibition
1,CC(C)Cc1cc(C(=O)N2CC[C@H](CO)[C@H](O)C2)on1,inactive
2,COC(=O)c1cccc(N2C(=O)C3C4c5ccccc5C(C)(c5ccccc54)C3C2=O)c1 (stereo not given),inactive
3,Cc1nc(SCC(=O)N2CCCCCC2)c2c(=O)n(C)c(=O)n(C)c2n1,inactive
4,Cc1[nH]c2ccccc2c1SCCNC(=O)C1CC1,inconclusive: 12%
5,c1cnc2c(-c3ccc4c(c3)OCO4)cccc2c1,inconclusive: 21%
6,c1cncc(-c2nnc([C@H]3CCN(Cc4cccs4)C3)o2)c1,inactive
7,COc1cccc(NC(=O)c2ccc(=O)n(Cc3ccc(F)cc3)c2)c1,inactive
8,COc1ccc(-c2coc3cc(O)cc(O)c3c2=O)cc1OC,inconclusive: 11%
9,O=C(NC(Nc1ccccc1)C(Cl)(Cl)Cl)c1ccc([N+](=O)[O-])cc1[N+](=O)[O-] (stereo not given),inconclusive: 20%
10,CCC(C)NC(=O)c1cc(=O)[nH]c2ccc(S(=O)(=O)N3CCOCC3)cc12 (stereo not given),inactive
11,Cc1cccc(-c2noc([C@@H]3Cc4nc[nH]c4CN3C(=O)CCC(=O)O)n2)c1,inconclusive: 20%
12,COc1cc(CCCOC(=O)CCc2ccc(O)cc2)ccc1O,inconclusive: 26%
13,O=C1CC(C(=O)N2CC(c3ccncc3)C2)CN1Cc1cccnc1 (stereo not given),inactive
14,CCN(CC)CC[C@H]1CN(C(=O)CC(C)(C)C)CC[C@H]1CC(=O)O,inconclusive: 16%
15,CC(=O)c1ccc2sc3ccccc3c2c1,inactive
16,COc1ccc(OCCN(C)Cc2ccccc2)cc1,inactive
17,CN(C)C(=O)c1ccc(-c2ccc(Cn3ccnc3)cc2)cc1,inconclusive: 21%
18,Cc1cccc(CSC2=NN3CCCC(=O)N=C3S2)c1,inconclusive: 15%
19,CCOc1ccc2nc(NC(=O)c3ccc(Cl)s3)sc2c1,inconclusive: 16%
20,CCCn1cc(C(=O)N2CCCN(C)C3(CCN(C)CC3)C2)c(C)n1,inconclusive: 18%
21,NC(=O)Cn1c(=O)n(-c2ccc(F)cc2)c(=O)c2sccc21,inconclusive: 19%
22,COc1ccc(C(=O)N2C[C@@H]3C[C@H](C2)c2c(NC(=O)c4ccc5c(c4)OCO5)ccc(=O)n2C3)cc1,inconclusive: 15%
23,O=C(Nc1ccc(F)cc1Cl)C1c2ccccc2C(=O)N2CCc3ccccc3C12 (stereo not given),inactive
24,CCOc1ccc(N2C(=O)c3c(C)nc4ccccc4c3C2=O)cc1,inconclusive: 24%

# Grouped by structure, the compounds so far containing an aryl methoxy group.
row,SMILES,inhibition
2,COc1ccc(C(Nc2cccc(C)n2)c2ccc3ccc(C)nc3c2O)cc1C (stereo not given),inconclusive: 20%
4,COc1ccc(C(O)=Cc2nc3cc(Cl)ccc3oc2=O)cc1OC,inconclusive: 10%
5,COc1ccc(NC(=O)CSc2nc3ccccc3o2)c([N+](=O)[O-])c1,inconclusive: 13%
14,COc1cc(C)ccc1S(=O)(=O)N1CCC2(CCN(C)C2)CC1,inconclusive: 10%
7,COc1cccc(NC(=O)c2ccc(=O)n(Cc3ccc(F)cc3)c2)c1,inactive
8,COc1ccc(-c2coc3cc(O)cc(O)c3c2=O)cc1OC,inconclusive: 11%
12,COc1cc(CCCOC(=O)CCc2ccc(O)cc2)ccc1O,inconclusive: 26%
16,COc1ccc(OCCN(C)Cc2ccccc2)cc1,inactive
22,COc1ccc(C(=O)N2C[C@@H]3C[C@H](C2)c2c(NC(=O)c4ccc5c(c4)OCO5)ccc(=O)n2C3)cc1,inconclusive: 15%

# (more compounds)

row,SMILES,inhibition
1,Cc1cc(NS(=O)(=O)c2ccc(NC(=O)c3ccc(C)c(C)c3)cc2)nc(C)n1,inconclusive: 13%
2,O=c1cc(-c2ccc([N+](=O)[O-])cc2)[nH]n1-c1nc2ccccc2s1,inconclusive: 14%
3,CC(C)Cc1nc(CCn2c(=O)[nH]c3ccccc32)n[nH]1,inconclusive: 17%
4,CCCCNc1ncnc2c1cnn2-c1ccc(C)cc1C,inconclusive: 11%
5,O=C(c1cn(CCN2CCOCC2)nn1)N1CCCCC1c1ccccn1 (stereo not given),inconclusive: 20%
6,Cc1nnc(SCC(=O)Nc2ccc(Cl)cc2)s1,inactive
7,COc1ccccc1C1NCCc2c1[nH]c1ccccc21 (stereo not given),inconclusive: 14%
8,Cc1ccc(/C=C2\NC(=O)N(Cc3ccc(Cl)cc3)C2=O)cc1,inconclusive: 16%
9,COc1cc2c(cc1CN1CCN(c3cc(C(N)=O)ccn3)CC1)CCC2,inconclusive: 15%
10,Cc1cc(O)cc(C)c1CN1CCOC(CCCc2ccccc2)C1 (stereo not given),inactive
11,Cc1cc(N2CC(C(=O)O)CC2=O)ccc1NC(=O)c1ccco1 (stereo not given),inactive
12,O=C(Nc1cccc(Cl)c1)c1ccc2c(c1SCCO)C(=O)c1ccccc1C2=O,inconclusive: 20%
13,Cc1cc(C)cc(N2CN=C3SCC(=O)N3C2)c1,inconclusive: 26%
14,COc1ccc(C(=O)Nc2ccc(Nc3nc(C)cc(Nc4ccccc4)n3)cc2)cc1,inconclusive: 24%
15,Cc1nc2c(C(=O)NC3CCCC3)c[nH]n2c(=O)c1Cc1cccc(Cl)c1,inactive
16,CCC1C[N+]2([O-])CCc3cc(OC)c(OC)cc3C2CC1CC1NCCc2cc(OC)c(OC)cc21 (stereo not given),inconclusive: 13%
17,O=C(c1cnc(CN2CCCC2)s1)N1C[C@@H]2CNC[C@]2(C(=O)O)C1,inactive
18,CCOc1ccc(S(=O)(=O)Nc2ccc(Cl)c(C(F)(F)F)c2)c2cccnc12,inactive
19,CCC(C)NC(=O)CSc1nc2nc(C)c(Cc3ccccc3Cl)c(C)n2n1 (stereo not given),inactive
20,O=C1C(=O)N(CN2CCCCCC2)c2ccccc21,active: 42%
21,Cc1ccc(NS(=O)(=O)c2ccc(Br)cc2)cc1Cl,inactive
22,Cc1cc(CNC(=O)c2ccc(=O)[nH]n2)c2[nH]c(-c3ccccc3)c(C)c2c1,inconclusive: 11%
23,CC(Oc1ccccc1)c1nc2c(Br)cc(Br)cc2c(=O)o1 (stereo not given),inconclusive: 15%
24,Cc1[nH]cnc1CSCCNC(=O)[C@@]12CNC[C@@H]1CN(C)C2,inactive

row,SMILES,inhibition
1,CCOc1ccccc1N(CC(=O)Nc1ccc(OCc2ccccc2)cc1)S(C)(=O)=O,inconclusive: 10%
2,Cc1ccc(C2C3=C(CC(C)(C)CC3=O)Nc3nc(SCC(C)C)[nH]c(=O)c32)cc1 (stereo not given),inconclusive: 11% and inconclusive: 10%
3,COc1ccc(-c2cnc(N)cn2)cc1Cl,inconclusive: 22%
4,Cc1cc(C)cc(N(C(=O)c2cccc(F)c2)C2C=CS(=O)(=O)C2)c1 (stereo not given),inconclusive: 14%
5,O=C(c1ccc(Cn2ccnc2)o1)N1CCc2onc(-c3ccccc3)c2C1,inconclusive: 14%
6,O=C(NCc1ccccn1)c1cncc(Br)c1,inconclusive: 18% and inconclusive: 14%
7,O=S(=O)(c1ccc2oc(-c3cccnc3)nc2c1)c1ccc2oc(-c3cccnc3)nc2c1,inactive
8,CC1CC(Nc2ccccc2)c2ccccc2N1C(=O)c1cccs1 (stereo not given),inconclusive: 23%
9,COCCN(Cc1sccc1C)C(=O)c1scc2c1OCCO2,inactive
10,COc1cccc(C2C(C#N)=C(N)Oc3c2c(=O)n(C)c(=O)n3C)c1 (stereo not given),inactive
11,Cc1cc(S(=O)(=O)N=C2C=CC(=O)c3ccccc32)ccc1Cl,active: 42%
12,COc1ccc(CN2CCC[C@H]2c2nc(-c3ccc(N(C)C)nc3)no2)c(O)c1,inconclusive: 27%
13,Cc1cccc(C(NC(=O)C(=O)Nc2cc(C)on2)c2cccs2)c1 (stereo not given),inconclusive: 10%
14,O=C1c2ccccc2C(=O)N1c1ccc(Cl)cc1,inconclusive: 13%
15,CCN1C(=O)NC(=O)/C(=C\c2cn(CCOc3ccc(C)cc3)c3ccccc23)C1=O,inconclusive: 24%
16,O=C(NC(c1ccccc1)c1ccccc1)c1cccs1,inconclusive: 14%
17,Cc1ccc(NS(=O)(=O)c2ccc3c(c2)c(=O)n(C)c(=O)n3C)c(C)c1,inactive
18,CN(Cc1cc(C(C)(C)C)n[nH]1)C(=O)c1cn2c3c(cccc3c1=O)CC2,inactive
19,CS(=O)(=O)N1C[C@H]2CNC[C@@]2(C(=O)NC2Cc3ccccc3C2)C1,inconclusive: 14%
20,CCOc1ccccc1NC(=O)CCS(=O)(=O)c1cccc2nsnc12,inconclusive: 12%
21,CC(c1ccccc1)n1c(SCC(=O)O)nnc1-c1cnccn1 (stereo not given),inconclusive: 14%
22,COc1ccc(O)c(C(=O)CC(=O)c2ccccc2)c1,active: 32%
23,COC1CCN(c2ccc(-c3nc(Cc4ccccc4)no3)cn2)CC1,inconclusive: 10%

# Source: PubChem BioAssay AID1259354 (Paczesny and Yang Labs, IUPUI and University of Michigan, 2018)
